Data published in PubChem BioAssay AID1347076 (National Center for Advancing Translational Sciences (NCATS), 2019).
In all, about 400,000 compounds went through this assay and about 13,000 (3.2%) were called active. This list was built around the results that the source calls inconclusive (neither active nor inactive); the mix of calls is not that of the screen. Calls follow the shape of the dose curve; as a rule, active = well fitted cell-killing curve with a large enough effect; inconclusive = small, poorly fitted or top-dose-only effect, or effect the other way; inactive = flat fitted curve, though single readings scatter. Potencies beside an inconclusive call are fits to weak or partial responses and may not hold up.

Test: qHTS assay for MDR1-selective chemotherapeutics: Primary screen using the drug-selected MDR subline cells KB-V1; also: nearly all actives have a fitted effect of over 60% in size
Conditions: KB-V1 MDR cells viability, CellTiter-Glo, 72 h; series mostly up to 46.1 µM
Procedure, shortened: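 Luminescent ATP read-out (CellTiter-Glo, 10 min) measures survival of drug-selected KB-V1 MDR cells after 72 h, 37 degrees C compound exposure. Medium: phenol-red-free DMEM, 10% FBS. Values from fitted concentration-response curves.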
Potency is read from the fitted curve at half-maximal effect.

Compound | Potency
CCC(=O)Nc1ccccc1C(=O)OCC(=O)c1ccccc1 | inconclusive: 23.1 µM [cytotoxic, single point]
CCOC(=O)[C@H](C)N1[C@H](C)[C@H](c2ccccc2)Oc2ccc(Cl)cc2S1(=O)=O | inactive
O=S(=O)(NOCc1ccc(Cl)cc1)c1ccc(Cl)cc1 | inactive
COC(=O)c1cc(S(=O)(=O)NC2CCN(Cc3ccccc3)CC2)cn1C | inconclusive: 16.4 µM [cytotoxic, partial curve]
CC(C)(C)c1nc2c(C#N)c(-c3ccc(Cl)cc3)ccn2n1 | inactive
O=C(COC(=O)c1cnccn1)Nc1ncc(C(F)(F)F)cc1Cl | inactive
COc1ccc(CNC(=O)CN2C(=O)C(C)N(c3ccc(C)cc3)C2=O)cc1 (stereo not given) | inconclusive: 18.4 µM [cytotoxic, single point]
COc1ccc(Nc2oc(-c3ccc(Cl)cc3)nc2C#N)cc1 | inconclusive: 2.59 µM [cytotoxic, partial curve, poor fit]
O=C(Nc1ccc(Oc2cccnc2)cc1)c1ccccc1Cl | inactive
CCOc1ccccc1N(CC(=O)NCc1ccccc1)C(=O)CCC(=O)Nc1cc(C)ccn1 | inconclusive: 20.6 µM [rising, single point]
CCS(=O)(=O)c1ncc(Cl)c(C(=O)Nc2ccccc2OC)n1 | inconclusive: 29.1 µM [cytotoxic, single point]
O=C(c1ccccc1Cc1ccccc1)N1CCN(S(=O)(=O)c2ccccc2)CC1 | inconclusive: 13 µM [cytotoxic, partial curve, poor fit]
COc1ccc(C(=O)N[C@H](C(=O)NCc2cccs2)C(C)C)cc1 | inactive
S=C(Nc1ccccc1)NC1CCN(Cc2ccccc2)CC1 | inconclusive: 13 µM [cytotoxic, partial curve, poor fit]
COc1cc2c(cc1OC)C(C)N(CC(=O)Nc1ccc(C)c(S(=O)(=O)N3CCOCC3)c1)CC2 (stereo not given) | inactive
Cc1ccc(S(=O)(=O)c2c(C)nn(C(C)(C)C)c2OC(=O)C2CCCC2)cc1 | inconclusive: 29.1 µM [cytotoxic, single point]
CSc1cccc(NC(=O)C2CCCN(S(=O)(=O)c3ccc4c(c3)CCCN4C(C)=O)C2)c1 (stereo not given) | inconclusive: 20.6 µM [cytotoxic, single point]
COc1cc(CNC(=O)C2CC2)ccc1OCc1ccccc1 | inconclusive: 23.1 µM [cytotoxic, single point]
CCn1c(C(C)NC(=O)c2ccc(C)cc2)n[nH]c1=S (stereo not given) | inconclusive: 25.9 µM [cytotoxic, single point]
Cc1ccc(C(=O)Cn2c(C(=O)/C=C/c3ccccc3)nc3ccccc32)cc1 | active: 13 µM
CC1CCCCN1CCCNC(=O)C1CCCN(c2ncnc3c2nc2n3CCCCC2)C1 (stereo not given) | inconclusive: 18.4 µM [rising, single point]
COc1ccc(CN(C(C)=O)c2cccc(C)c2C)cc1 | inconclusive: 16.4 µM [cytotoxic, single point]
CCCC(CCC(=O)Nc1ccc(S(N)(=O)=O)cc1)C(=O)O (stereo not given) | inconclusive: 9.2 µM [rising, single point]

Three records drawn at random from those above:
Compound | Potency
COc1ccc(C(=O)N[C@H](C(=O)NCc2cccs2)C(C)C)cc1 | inactive
Cc1ccc(S(=O)(=O)c2c(C)nn(C(C)(C)C)c2OC(=O)C2CCCC2)cc1 | inconclusive: 29.1 µM [cytotoxic, single point]
CCOC(=O)[C@H](C)N1[C@H](C)[C@H](c2ccccc2)Oc2ccc(Cl)cc2S1(=O)=O | inactive

The list goes on:

Compound | Potency
Cc1nc(C)c(C(=O)Nc2ncc([N+](=O)[O-])s2)o1 | inconclusive: 9.2 µM [cytotoxic, partial curve]
CC[C@]1(C(=O)OC)[C@H]2C(=O)N(Cc3ccccc3)C(=O)[C@H]2[C@H]2CN=C(SCc3ccc(Cl)cc3)N21 | inconclusive: 29.1 µM [cytotoxic, single point]
Cc1ccc(N2CC(C(=O)N3CCN(c4ccccc4)CC3)CC2=O)cc1 (stereo not given) | inconclusive: 20.6 µM [cytotoxic, single point]
COC(=O)c1ccccc1NC(=O)/C=C/c1cc(OC)c(OC)c(OC)c1 | inconclusive: 18.4 µM [cytotoxic, single point]
CCCNC(=O)C1Cc2cc(S(=O)(=O)N3CCCC3)ccc2N1C(C)=O (stereo not given) | inactive
Cc1cccc(OCC(=O)NC(C)C(=O)N/N=C/c2c(OCc3ccccc3)ccc3ccccc23)c1 (stereo not given) | active: 16.4 µM
Cc1nc(N2CCN(S(=O)(=O)c3ccccc3C#N)CC2)c2c(-c3ccccc3)csc2n1 | inconclusive: 16.4 µM [cytotoxic, single point]
O=C(O)CCNS(=O)(=O)c1ccc(Oc2ccccc2)cc1 | inactive
O=C1NC2(CCCCC2)C(=O)N1Cc1cc(=O)n2ccsc2n1 | inconclusive: 11.6 µM [rising, partial curve]
O=C(Nc1ccc(N2CCOCC2)cc1)C1CCN(C(=O)OCc2ccccc2)CC1 | inactive
O=C(c1cc(-c2cccnc2)nc2ccccc12)N1CCCc2ccccc21 | inconclusive: 23.1 µM [cytotoxic, partial curve, poor fit]
CNC(=S)Nc1cc(C)ccc1OC(F)F | inactive
CCCCNC(=O)c1ccccc1NC(=O)CCC | inactive
N#CCCN(C(=O)COC(=O)c1ccc2ccccc2n1)c1ccccc1 | inconclusive: 29.1 µM [rising, single point]
S=C(Nc1ccccn1)NC1CCCC1 | inconclusive: 29.1 µM [rising, single point]
CC1=C(C(=O)OCC2CCCO2)C(c2coc3ccc(Cl)cc3c2=O)C2=C(CCCC2=O)N1 (stereo not given) | inconclusive: 29.1 µM [cytotoxic, single point]
Cc1c(F)cccc1NS(=O)(=O)c1ccc2c(c1)c(=O)n(C)c(=O)n2C | inactive
Cc1ccccc1Nc1ccc(S(=O)(=O)N2CCOCC2)cc1[N+](=O)[O-] | inconclusive: 16.4 µM [cytotoxic, single point]
Cc1cc(=O)[nH]c(N=N/C(=N/Nc2ccccc2C)c2ccccc2)n1 | inactive
CC1(C)Cc2c(cnn2-c2ccccc2)C(NC(=O)CCc2ccncc2)C1 (stereo not given) | inconclusive: 5.17 µM [cytotoxic, partial curve, poor fit]
CSc1nc2sc3c(c2c2nncn12)CCC3 | inactive
COc1cccc(/C=N/Nc2ncnc(Cl)c2N)c1O | inconclusive: 0.731 µM [cytotoxic, full curve, poor fit]
